Measurements reported in the supplement of paper PMC12889115.
The other results are listed elsewhere or left out. Values are raw readings; no control value is given beside them.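 First-pass screen: polymyxin B was added at a level that permeabilizes the Salmonella outer membrane while sparing the inner membrane. DMSO wells, with and without polymyxin B, defined maximum growth. Because plates differed from one another, each plate's data were ranked separately and the compounds with the lowest OD600 were carried forward as hits.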

Tested on: Salmonella enterica serovar Typhimurium SL1344
Assay: bacterial growth OD600 after 18 h with compound and polymyxin B; higher = more bacterial growth (less inhibition)
Conditions: 50 µM, Mueller-Hinton broth

Structure (SMILES) | bacterial growth OD600 (polymyxin B 0.75 µg/mL) | bacterial growth OD600 (polymyxin B 1 µg/mL)
Cc1cnc(C)c(-c2cccc3c2OC(CNC(=O)c2ccc(Cn4nc(C)cc4C)cc2)C3)n1 (centres undefined) | 0.812 | 
Cc1cc(C)n(-c2ccc(NC(=O)C3CCCCN3C(=O)CC(C)(C)C)cc2)n1 (centres undefined) |  | 0.953
COc1cccc(CN2CCN(Cc3nc(-c4cccc5ccccc45)oc3C)CC2=O)c1 |  | 0.009
CCCn1c(C)c(CC(=O)NC(C)COC)c2c1CC(C)(C)CC2=O (centres undefined) |  | 0.791
O=C(Nc1cccc(-c2cscn2)c1)C1CCN(Cc2cc(C#CCO)cs2)CC1 | 0.716 | 
COc1ccc(O)c(CN2CCC(C(Cc3ccc(F)cc3)N(C)Cc3cn(C)nc3C)CC2)c1 (centres undefined) | 0.932 | 
CN1CCCC(CN(CCc2ccccc2)C(=O)Cc2c(F)cccc2F)C1 (centres undefined) |  | 0.829
CSc1ccccc1C(=O)NCc1c(C)ncc2c1CCN(C(=O)c1cccc(C)c1C)C2 | 0.814 | 
OC1CCCN(C2CCN(c3nc4nonc4nc3NCc3cccs3)CC2)C1 (centres undefined) |  | 0.94
CN(C)C1CCN(c2ccc(-c3nc(CCc4ccccc4)no3)cn2)C1 (centres undefined) |  | 0.969
O=C(CCCN1CCCC1=O)NC1CCCN(C2CCCCCC2)C1 (centres undefined) |  | 1
O=C(c1ccc(F)c(F)c1)N1CCCC(N2CCN(c3cccc(Cl)c3)CC2)C1 (centres undefined) |  | 0.79
CN(C(=O)c1cccs1)C(Cc1ccccc1)C1CCN(C(=O)c2ccc(-n3cccn3)cc2)CC1 (centres undefined) | 0.002 | 
Cc1cccn2c(CN(C)CC3CCOCC3)c(C(=O)N(C)CCc3ccccc3)nc12 | 0.764 | 
C=CCNC(=O)c1coc(COc2cccc(C(F)(F)F)c2)n1 |  | 0.827
CSc1ccc(CC(=O)N2CCCC(CO)(CCOc3ccccc3)C2)cc1 (centres undefined) |  | 0.67
Cc1oc(-c2cccc(NC(=O)C3CCCN(C)C3)c2)nc1CNC(=O)Cc1ccc2c(c1)OCO2 (centres undefined) | 0.98 | 
COC(=O)CCC(=O)NC1CC(C)(C)Cc2nc(C(C)(C)C)ncc21 (centres undefined) | 0.817 | 
O=C(c1ccccc1OC1CCN(Cc2cccc3c2OCO3)CC1)N1CCCCC1 |  | 0.905

Random excerpt: 2 records from the list
Structure (SMILES) | bacterial growth OD600 (polymyxin B 0.75 µg/mL) | bacterial growth OD600 (polymyxin B 1 µg/mL)
O=C(CCCN1CCCC1=O)NC1CCCN(C2CCCCCC2)C1 (centres undefined) |  | 1
COc1cccc(CN2CCN(Cc3nc(-c4cccc5ccccc45)oc3C)CC2=O)c1 |  | 0.009
